Some of the results follow. Shown are side measurements of this screen, not its main read-out; they come without a call. Most of these compounds were active or inconclusive in the main read-out, so they are no random draw. The note in brackets gives the kind of curve behind each potency; many fits are weak.
Test: qHTS for identification of novel therapeutic agents for treatment of microphthalmiaassociated transcription factor (MiT) renal cell carcinoma (RCC) (AID 1963991)
Details: CellTiter-Glo, 48 h; for z-score: stronger effect = lower value
Summary of the method: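 UOK109/UOK124/UOK145 (TFE3 fusions, three partners); 500 cells/well; MIPE v4.0, 1912 cpds, 11 conc.; 48 h, 37 C; CellTiter-Glo, 15 min RT; lum. Norm.: DMSO 100%, empty 0%.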

[1] = TFE3-RCC UOK109 viability, measured here: UOK109 Z-AUC
[2] = TFE3-RCC viability, measured here: UOK124 Z-AUC
[3] = TFE3-RCC viability, measured here: UOK145 Z-AUC
[4] = TFE3-RCC viability, measured here: UOK124 cell viability
[5] = TFE3-RCC viability, measured here: UOK145 cell viability

Row | Structure (SMILES) | z-score [1] | z-score [2] | z-score [3] | AC50 [4] | AC50 [5]
1 | CNC1CCCN(c2c(F)cc3c(=O)c(C(=O)O)cn(C4CC4)c3c2OC)C1 (centres undefined) | 0.529 | 0.732 | 0.808 |  | 
2 | CNC(=O)c1ccc(N2C(=S)N(c3ccc(C#N)c(C(F)(F)F)c3)C(=O)C2(C)C)cc1F | 0.214 | 0.405 | 0.53 |  | 
3 | CC(=O)OCCN1C(=O)c2c(C)nc3ccc(S(=O)(=O)N4CCOCC4)cc3c2C1=O | 0.414 | 0.855 | 0.707 |  | 
4 | O=C(Nc1ccccc1)Nc1ccc(-c2ccc(C(=O)[C@H]3CCC[C@H]3C(=O)O)cc2)cc1 | 1.27 | 0.675 | 0.601 |  | 
5 | CC(NCc1ccc2c(c1)nc(NC(=O)c1ccc(-c3cn[nH]c3)s1)n2CC(C)(C)O)C(C)(C)C (centres undefined) |  |  |  | 372 nM [falling, full curve] | 935 nM [falling, full curve]
6 | C[C@](Cc1c[nH]c2ccccc12)(NC(=O)OC1C2CC3CC(C2)CC1C3)C(=O)NC[C@H](NC(=O)CCC(=O)O)c1ccccc1 (some centres undefined) | -0.27 | 0.413 | 0.0283 |  | 
7 | Cc1[nH]c(C=C2C(=O)Nc3ccccc32)c(C)c1CCC(=O)O |  |  |  | 662 nM [falling, full curve] | 833 nM [falling, full curve]
8 | CCc1cnn2c(NCc3ccc[n+]([O-])c3)cc(N3CCCC[C@@H]3CCO)nc12 |  |  |  | 33.2 nM [falling, full curve] | 37.2 nM [falling, full curve]
9 | C[C@]12CCC(=O)C=C1CC[C@@H]1[C@H]2[C@@H](O)C[C@@]2(C)[C@H]1CC[C@]2(O)C(=O)CO | 1.31 | 0.516 | 0.567 |  | 

From PubChem BioAssay (NCATS)
